## Cleaved PARP after 72 h of treatment

Compounds and concentrations:
erlotinib: C#Cc1cccc(Nc2ncnc3cc(OCCOC)c(OCCOC)cc23)c1 at 4 µM
YM155: COCC[n+]1c2c(n(Cc3cnccn3)c1C)C(=O)c1ccccc1C2=O at 0.002 µM
VX-702: NC(=O)c1ccc(N(C(N)=O)c2c(F)cccc2F)nc1-c1ccc(F)cc1F at 2 µM
bortezomib: CC(C)C[C@H](NC(=O)[C@H](Cc1ccccc1)NC(=O)c1cnccn1)B(O)O at 0.005 µM
crizotinib: C[C@@H](Oc1cc(-c2cnn(C3CCNCC3)c2)cnc1N)c1c(Cl)ccc(F)c1Cl at 1 µM
BMS-536924: Cc1cc(N2CCOCC2)cc2[nH]c(-c3c(NC[C@@H](O)c4cccc(Cl)c4)cc[nH]c3=O)nc12 at 1 µM
JZL184: O=C(Oc1ccc([N+](=O)[O-])cc1)N1CCC(C(O)(c2ccc3c(c2)OCO3)c2ccc3c(c2)OCO3)CC1 at 5 µM
CX-4945: O=C(O)c1ccc2c(c1)nc(Nc1cccc(Cl)c1)c1ccncc12 at 2 µM
enzastaurin: Cn1cc(C2=C(c3cn(C4CCN(Cc5ccccn5)CC4)c4ccccc34)C(=O)NC2=O)c2ccccc21 at 4 µM
GW0742: Cc1cc(SCc2sc(-c3ccc(C(F)(F)F)c(F)c3)nc2C)ccc1OCC(=O)O at 10 µM
cisplatin: N.N.[Cl][Pt][Cl] at 8 µM

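Human melanoma cells were exposed to a pair of drugs for 72 h in 1,536-well plates and read by automated microscopy after fixing and staining. Values are the share of nuclei positive for cleaved PARP as a percentage of the same share in the DMSO control: 100 is the control level, higher means more apoptosis. Concentrations were fixed for each drug; these are the higher of two levels. These are primary screening values without error estimates. Basal and induced levels differ widely between cell lines.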
Only some of the drugs and lines screened are listed, without regard to their results.

Drugs	UACC-62	WM3526	COLO 800	SK-MEL-5	C32	WM451Lu	IPC-298	COLO 829	MEL-HO	IST-MEL1
crizotinib + CX-4945	258	235	55.2	171	205	160	177	314	71.8	95.7
bortezomib + GW0742	471	1990	218	858	324	4110	4150	3990	681	1060
erlotinib + cisplatin	154	132	178	110	122	31.4	221	139	79.5	72.7
VX-702 + CX-4945	212	299	178	335	153	344	127	225	236	115
erlotinib + BMS-536924	95.3	385	137	211	130	91.2	184	90.7	114	85.0
cisplatin + GW0742	93.4	162	25.6	193	68.2	236	154	85.5	45.0	139
CX-4945 + erlotinib	528	736	67.7	344	125	66.5	141	486	82.8	99.5
cisplatin + VX-702	89.5	101	66.4	27.3	167	160	131	198	128	96.3
GW0742 + CX-4945	372	179	91.4	181	133	81.1	128	364	284	71.5
bortezomib + BMS-536924	180	3450	193	2170	1520	2370	2150	3610	181	230
erlotinib + enzastaurin	237	239	146	262	171	151	27.6	109	88.3	145
JZL184 + crizotinib	259	45.9	55.5	86.5	502	109	98.7	83.8	38.5	66.8
erlotinib + VX-702	180	210	38.3	260	18.9	126	112	132	57.4	105
bortezomib + enzastaurin	268	3750	164	2910	1310	1730	8560	4960	282	751
VX-702 + enzastaurin	236	151	115	88.4	176	351	200	127	50.1	59.9
bortezomib + JZL184	368	1600	179	521	427	6410	4150	2990	131	659
VX-702 + BMS-536924	47.3	157	233	278	76.9	88.8	180	141	529	87.5
YM155 + erlotinib	505	2370	208	1370	88.8	817	1130	368	73.0	206
BMS-536924 + crizotinib	120	217	138	277	254	65.6	73.2	93.5	68.3	133
GW0742 + BMS-536924	30.3	119	525	77.3	78.9	121	36.2	80.4	44.4	90.3
VX-702 + GW0742	141	58.7	99.2	104	88.8	250	240	133	81.3	137

Some entries from above, unchanged:

{"drugs": "VX-702 + BMS-536924", "UACC-62": 47.3, "WM3526": 157, "COLO 800": 233, "SK-MEL-5": 278, "C32": 76.9, "WM451Lu": 88.8, "IPC-298": 180, "COLO 829": 141, "MEL-HO": 529, "IST-MEL1": 87.5}
{"drugs": "cisplatin + VX-702", "UACC-62": 89.5, "WM3526": 101, "COLO 800": 66.4, "SK-MEL-5": 27.3, "C32": 167, "WM451Lu": 160, "IPC-298": 131, "COLO 829": 198, "MEL-HO": 128, "IST-MEL1": 96.3}

Source: doi:10.1371/journal.pone.0140310, primary screening data, rounded.